This note sets out measurements from patent US20140329275A1, “BIOCATALYSIS CELLS AND METHODS” (REGENTS OF THE UNIVERSITY OF MINNESOTA, priority 2011, published 2014).

The conditions of the series: hexane and oleyl alcohol vs aqueous fermentation broth, pH 3.0.

With `CC(C)CC(=O)O` [isovaleric acid], the “distribution coefficient Kd” value was “high”.
